PubChem BioAssay AID743454, Peter MacCallum Cancer Centre | 2014
Aim: 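Search for knock-downs that restore vorinostat killing in resistant colon cancer cells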 (primary screen). System: human HCT116-VR colon cancer cells, selected for vorinostat resistance. Knock-down reagent: siRNA pool against human genes, 40 nM siRNA pool. Duration: vorinostat for 24 h, read-out about 72 h after transfection. Challenge: vorinostat at 2.5 µM final. Read-out: 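Cell viability by CellTiter-Fluor and caspase 3/7 activity by luminescence, each scaled to mock wells per plate, duplicates averaged, then robust z-scored over all plates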. Reading the numbers: viability robust z-score: higher = more viable cells than screen typical; caspase robust z-score: higher = more caspase 3/7 activity than screen typical. Active means: 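a knock-down is a hit when classed RV1 or RV2 for lowered viability, or CA1 or CA2 for caspase activation; those lethal without drug were dropped; hits were retested singly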.
In all, the deposit lists about 18,000 reagents; this is a part drawn at random. 450 of them (2.5%) count as active. 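Single biological run; no consistent viability z cut-off exists, so the class columns, not z-scores, define the calls.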 Entries without a mark were called inactive.

| Gene | viability hit class | caspase hit class | viability robust z-score | caspase robust z-score |
| --- | --- | --- | --- | --- |
| OR2L2 (olfactory receptor family 2 subfamily L member 2) | no change | no change | -0.82 | -1.02 |
| ISG20L2 (interferon stimulated exonuclease gene 20 like 2) | no change | no change | -1 | 1.52 |
| NMT2 (N-myristoyltransferase 2) | no change | no change | 1.33 | 0.64 |
| DPYS (dihydropyrimidinase) | no change | no change | 0.94 | -0.76 |
| ARMH3 (armadillo like helical domain containing 3) | no change | no change | 1.02 | -0.16 |
| C14orf184 (retired record) | no change | no change | 0.92 | -0.75 |
| AMZ1 (archaelysin family metallopeptidase 1) | no change | no change | -1.49 | -0.03 |
| LAMA1 (laminin subunit alpha 1) | no change | no change | 0.2 | -1.06 |
| EEFSEC (eukaryotic elongation factor, selenocysteine-tRNA specific) | no change | no change | 1.08 | 1.92 |
| MTHFSD (methenyltetrahydrofolate synthetase domain containing) | no change | no change | 0.34 | 0.07 |
| IL18 (interleukin 18) | no change | no change | -0.44 | 1.4 |
| OR2Z1 (olfactory receptor family 2 subfamily Z member 1) | no change | no change | -0.73 | -0.86 |
| RTEL1 (regulator of telomere elongation helicase 1) | no change | no change | -1.15 | 0.55 |
| DBNL (drebrin like) | no change | no change | 0.7 | 1.6 |
| PRPF8 (pre-mRNA processing factor 8) | RV2 (reduced viability) (active) | no change | -3.36 | 0.54 |
| WHRN (whirlin) | no change | no change | 2.06 | -0.48 |
| CACNG8 (calcium voltage-gated channel auxiliary subunit gamma 8) | no change | no change | 0.68 | -0.8 |
| SUMO3 (small ubiquitin like modifier 3) | no change | no change | 0.59 | -0.42 |
| ADAD1 (adenosine deaminase domain containing 1) | no change | no change | 0.1 | -0.92 |
| SEC61B (SEC61 translocon subunit beta) | no change (active) | CA2 (caspase activation) | -2.84 | 5.52 |
| PMVK (phosphomevalonate kinase) | no change | no change | -1.75 | 1.41 |
| PLIN3 (perilipin 3) | no change | no change | -1.16 | 1.11 |
| PYGO1 (pygopus family PHD finger 1) | no change | no change | -0.59 | 0.11 |
| DNLZ (DNL-type zinc finger) | no change | no change | -0.86 | 0.4 |
| PLAA (phospholipase A2 activating protein) | no change | no change | -2.44 | -0.97 |
| CORO7 (coronin 7) | no change | no change | -1.28 | 1.65 |
| RBM19 (RNA binding motif protein 19) | no change | no change | -1.55 | -0.12 |
| SFXN3 (sideroflexin 3) | no change | no change | -0.38 | -0.05 |
| DIRAS2 (DIRAS family GTPase 2) | no change | no change | -0.72 | 3.05 |
| NUP188 (nucleoporin 188) | no change | no change | -0.49 | 3.02 |
| PDS5A (PDS5 cohesin associated factor A) | no change | no change | 0.06 | -0.88 |
| OARD1 (O-acyl-ADP-ribose deacylase 1) | no change | no change | -1.62 | -1.19 |
| ATP11AUN (ATP11A upstream neighbor lncRNA) | no change | no change | 1.34 | 0.22 |
| CHAF1A (chromatin assembly factor 1 subunit A) | no change | no change | -1.58 | -0.57 |
| SARS1 (seryl-tRNA synthetase 1) | no change | no change | -2.39 | 0.22 |
| NPM3 (nucleophosmin/nucleoplasmin 3) | no change | no change | 1.29 | -0.23 |
| PPFIA4 (PPFI scaffold protein A4) | no change | no change | 1.09 | 0.94 |
| NAT14 (N-acetyltransferase 14 (putative)) | no change | no change | -1 | -0.74 |
| INPP4A (inositol polyphosphate-4-phosphatase type I A) | no change | no change | -0.36 | -0.3 |
| NAPEPLD (N-acyl phosphatidylethanolamine phospholipase D) | no change | no change | 1.45 | -0.45 |
| PROM1 (prominin 1) | no change | no change | 0.32 | 1.25 |
| SPEF2 (sperm flagellar and cilia associated 2) | no change | no change | 1.44 | -0.38 |
| LRRC8D (leucine rich repeat containing 8 VRAC subunit D) | no change | no change | -1.12 | 1.6 |
| ZNF324B (zinc finger protein 324B) | no change | no change | -0.14 | 0.98 |
| TP53BP2 (tumor protein p53 binding protein 2) | no change | no change | 0.48 | -0.22 |
| DNAJC6 (DnaJ heat shock protein family (Hsp40) member C6) | no change | no change | -1.08 | -1.05 |
| ZNF473 (zinc finger protein 473) | no change | no change | 0.34 | -0.53 |
| ZNF200 (zinc finger protein 200) | no change | no change | -0.1 | 2.69 |
| OR5T1 (olfactory receptor family 5 subfamily T member 1) | no change | no change | 0.06 | -1.02 |
| DBF4B (DBF4B-CDC7 kinase regulatory subunit) | no change | no change | 0.06 | 0.19 |
| ADAM20 (ADAM metallopeptidase domain 20) | no change | no change | 0.46 | -0.4 |
| COPS7B (COP9 signalosome subunit 7B) | no change | no change | 0.27 | 1 |
| AMER2 (APC membrane recruitment protein 2) | no change | no change | -2.19 | -0.15 |
| TAT (tyrosine aminotransferase) | no change | no change | -0.57 | -0.27 |
| IL38 (interleukin 38) | no change | no change | -0.24 | -0.6 |
| CHST9 (carbohydrate sulfotransferase 9) | no change | no change | -1.91 | 1.73 |
| SHB (SH2 domain containing adaptor protein B) | no change | no change | -0.11 | -0.49 |
| TM4SF1 (transmembrane 4 L six family member 1) | no change | no change | -0.58 | -0.09 |
| SERF2 (small EDRK-rich factor 2) | no change | no change | 0.98 | -0.44 |
| MAGEA1 (MAGE family member A1) | no change | no change | -0.05 | 1.06 |
| BANK1 (B cell scaffold protein with ankyrin repeats 1) | no change | no change | -0.14 | -0.9 |
| GABRA1 (gamma-aminobutyric acid type A receptor subunit alpha1) | no change | no change | -0.69 | 1.59 |
| SGSH (N-sulfoglucosamine sulfohydrolase) | no change | no change | 0.16 | 1.12 |
| PRMT8 (protein arginine methyltransferase 8) | no change | no change | -0.94 | -0.88 |
| LST1 (leukocyte specific transcript 1) | no change | no change | -1.48 | 0.88 |
| PKD1L2 (polycystin 1 like 2 (gene/pseudogene)) | no change | no change | -0.36 | -0.01 |
| CHRNA9 (cholinergic receptor nicotinic alpha 9 subunit) | no change | no change | 0.3 | -0.52 |
| HAUS1 (HAUS augmin like complex subunit 1) | no change | no change | 0.92 | 1.92 |
| C1orf35 (chromosome 1 open reading frame 35) | no change | no change | -0.36 | -0.99 |
| RMC1 (regulator of MON1-CCZ1) | no change | no change | 1.25 | 0.58 |
| SZRD1 (SUZ RNA binding domain containing 1) | no change | no change | -0.04 | -0.5 |
| PRKAG1 (protein kinase AMP-activated non-catalytic subunit gamma 1) | no change | no change | 0.46 | 0.22 |
| IKBKE (inhibitor of nuclear factor kappa B kinase subunit epsilon) | no change | no change | -0.96 | 1.44 |

Reformatted: results already given
MAGEA1 (MAGE family member A1)
- viability hit class: no change
- caspase hit class: no change
- viability robust z-score: -0.05
- caspase robust z-score: 1.06

BANK1 (B cell scaffold protein with ankyrin repeats 1)
- viability hit class: no change
- caspase hit class: no change
- viability robust z-score: -0.14
- caspase robust z-score: -0.9

GABRA1 (gamma-aminobutyric acid type A receptor subunit alpha1)
- viability hit class: no change
- caspase hit class: no change
- viability robust z-score: -0.69
- caspase robust z-score: 1.59

SGSH (N-sulfoglucosamine sulfohydrolase)
- viability hit class: no change
- caspase hit class: no change
- viability robust z-score: 0.16
- caspase robust z-score: 1.12

PRMT8 (protein arginine methyltransferase 8)
- viability hit class: no change
- caspase hit class: no change
- viability robust z-score: -0.94
- caspase robust z-score: -0.88

LST1 (leukocyte specific transcript 1)
- viability hit class: no change
- caspase hit class: no change
- viability robust z-score: -1.48
- caspase robust z-score: 0.88

PKD1L2 (polycystin 1 like 2 (gene/pseudogene))
- viability hit class: no change
- caspase hit class: no change
- viability robust z-score: -0.36
- caspase robust z-score: -0.01

CHRNA9 (cholinergic receptor nicotinic alpha 9 subunit)
- viability hit class: no change
- caspase hit class: no change
- viability robust z-score: 0.3
- caspase robust z-score: -0.52

HAUS1 (HAUS augmin like complex subunit 1)
- viability hit class: no change
- caspase hit class: no change
- viability robust z-score: 0.92
- caspase robust z-score: 1.92

C1orf35 (chromosome 1 open reading frame 35)
- viability hit class: no change
- caspase hit class: no change
- viability robust z-score: -0.36
- caspase robust z-score: -0.99
